# The list shows a part of the results. Repeats are few or missing, and single values can be far off.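 Imaging used 1,536-well plates; nuclei positive for cleaved PARP by antibody were divided by total DNA-stained nuclei to yield the apoptosis fraction. Doses for screening kept most cells viable, and cell lines differ markedly in resting and induced cleaved-PARP levels.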
# Test system: WM1745
# Test: cleaved PARP positive nuclei fraction relative to DMSO control; melanoma cells; higher = more apoptosis
# Details: library dose: low library concentration; 72 h
row,Structure (SMILES),cleaved PARP positive nuclei fraction [%]
1,"N#CC[C@H](C1CCCC1)n1cc(-c2ncnc3[nH]ccc23)cn1 [ruxolitinib] + CO[C@@H]1[C@H](N(C)C(=O)c2ccccc2)C[C@H]2O[C@]1(C)n1c3ccccc3c3c4c(c5c6ccccc6n2c5c31)C(=O)NC4 [Midostaurin] (first compound 1 µM, partner dose 0.08 µM)",108
2,"Cc1cc(Nc2cc(N3CCN(C)CC3)nc(Sc3ccc(NC(=O)C4CC4)cc3)n2)n[nH]1 [Tozasertib] + NC1(c2ccc(-c3nc4ccn5c(=O)[nH]nc5c4cc3-c3ccccc3)cc2)CCC1 [MK2206] (first compound 0.006 µM, partner dose 0.4 µM)",114
3,"Cc1ccc(Nc2nccc(N(C)c3ccc4c(C)n(C)nc4c3)n2)cc1S(N)(=O)=O [Pazopanib] + Cc1cc([N+](=O)[O-])ccc1NS(=O)(=O)c1cc(Cl)ccc1Cl [FH535] (first compound 0.4 µM, partner dose 1 µM)",89.7
4,"O=C(Nc1cc(C(F)(F)F)cc(C(F)(F)F)c1)c1cc(Cl)ccc1O + CC(C)CCN1c2nc(Nc3cc(F)c(O)c(F)c3)ncc2N(C)C(=O)C1C [BID1870] (first compound 0.016 µM, partner dose 0.2 µM)",151
5,"N#CC[C@H](C1CCCC1)n1cc(-c2ncnc3[nH]ccc23)cn1 [ruxolitinib] + CCCS(=O)(=O)Nc1ccc(F)c(C(=O)c2c[nH]c3ncc(Cl)cc23)c1F [PLX4720] (first compound 1 µM, partner dose 0.08 µM)",81.7

# From the supplement of paper PMC4604168 (melanoma cell lines)
